The target in experiment [1] is T1, Elp1-S1198A S1202A-6HA (S. cerevisiae) (UniProt Q06706).
T1 sequence: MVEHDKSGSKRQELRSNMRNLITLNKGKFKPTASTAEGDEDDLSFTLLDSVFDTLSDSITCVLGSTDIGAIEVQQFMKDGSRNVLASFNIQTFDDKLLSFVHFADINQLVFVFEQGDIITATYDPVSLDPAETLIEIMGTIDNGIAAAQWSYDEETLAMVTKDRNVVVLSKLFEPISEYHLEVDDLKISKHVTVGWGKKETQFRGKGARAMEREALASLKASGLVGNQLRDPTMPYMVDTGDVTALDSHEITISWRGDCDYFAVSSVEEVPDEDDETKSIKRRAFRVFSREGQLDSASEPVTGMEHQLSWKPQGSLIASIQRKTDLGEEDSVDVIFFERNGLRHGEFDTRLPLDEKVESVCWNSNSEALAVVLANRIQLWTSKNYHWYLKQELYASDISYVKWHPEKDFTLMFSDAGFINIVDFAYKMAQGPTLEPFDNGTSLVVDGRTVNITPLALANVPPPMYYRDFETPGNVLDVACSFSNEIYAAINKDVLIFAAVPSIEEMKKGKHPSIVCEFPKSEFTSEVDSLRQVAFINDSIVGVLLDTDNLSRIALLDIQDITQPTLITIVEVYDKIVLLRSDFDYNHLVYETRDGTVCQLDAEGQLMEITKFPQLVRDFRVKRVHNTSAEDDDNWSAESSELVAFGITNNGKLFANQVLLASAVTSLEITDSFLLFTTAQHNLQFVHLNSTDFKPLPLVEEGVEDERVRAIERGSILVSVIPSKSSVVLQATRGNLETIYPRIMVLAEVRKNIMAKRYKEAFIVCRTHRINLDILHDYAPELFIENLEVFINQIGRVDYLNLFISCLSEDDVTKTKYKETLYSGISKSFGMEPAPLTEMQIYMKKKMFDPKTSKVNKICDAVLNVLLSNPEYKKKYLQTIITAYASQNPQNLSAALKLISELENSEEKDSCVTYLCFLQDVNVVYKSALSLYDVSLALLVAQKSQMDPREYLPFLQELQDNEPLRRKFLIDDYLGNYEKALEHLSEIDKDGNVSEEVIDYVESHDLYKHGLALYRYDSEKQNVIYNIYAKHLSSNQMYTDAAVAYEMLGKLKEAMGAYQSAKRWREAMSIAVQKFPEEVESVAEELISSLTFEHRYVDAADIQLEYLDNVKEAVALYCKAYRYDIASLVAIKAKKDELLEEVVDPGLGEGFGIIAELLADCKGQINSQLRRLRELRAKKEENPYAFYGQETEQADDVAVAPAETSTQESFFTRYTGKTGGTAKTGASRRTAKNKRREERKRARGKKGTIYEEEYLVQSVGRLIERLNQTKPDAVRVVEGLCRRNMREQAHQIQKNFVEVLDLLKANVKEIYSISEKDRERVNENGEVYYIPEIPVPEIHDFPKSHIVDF
The experiment can be described thus: co-IP; Elp2-myc immunoprecipitated from extracts of elp1Δ yeast strains carrying plasmid-borne ELP1-6HA alleles (antibody coupled to Dynabeads, B60 buffer); Western blot with anti-myc, anti-HA and anti-Hrr25.

Experiment [2] addresses T2, Elp2-myc3 (S. cerevisiae) (UniProt P42935).
T2 sequence: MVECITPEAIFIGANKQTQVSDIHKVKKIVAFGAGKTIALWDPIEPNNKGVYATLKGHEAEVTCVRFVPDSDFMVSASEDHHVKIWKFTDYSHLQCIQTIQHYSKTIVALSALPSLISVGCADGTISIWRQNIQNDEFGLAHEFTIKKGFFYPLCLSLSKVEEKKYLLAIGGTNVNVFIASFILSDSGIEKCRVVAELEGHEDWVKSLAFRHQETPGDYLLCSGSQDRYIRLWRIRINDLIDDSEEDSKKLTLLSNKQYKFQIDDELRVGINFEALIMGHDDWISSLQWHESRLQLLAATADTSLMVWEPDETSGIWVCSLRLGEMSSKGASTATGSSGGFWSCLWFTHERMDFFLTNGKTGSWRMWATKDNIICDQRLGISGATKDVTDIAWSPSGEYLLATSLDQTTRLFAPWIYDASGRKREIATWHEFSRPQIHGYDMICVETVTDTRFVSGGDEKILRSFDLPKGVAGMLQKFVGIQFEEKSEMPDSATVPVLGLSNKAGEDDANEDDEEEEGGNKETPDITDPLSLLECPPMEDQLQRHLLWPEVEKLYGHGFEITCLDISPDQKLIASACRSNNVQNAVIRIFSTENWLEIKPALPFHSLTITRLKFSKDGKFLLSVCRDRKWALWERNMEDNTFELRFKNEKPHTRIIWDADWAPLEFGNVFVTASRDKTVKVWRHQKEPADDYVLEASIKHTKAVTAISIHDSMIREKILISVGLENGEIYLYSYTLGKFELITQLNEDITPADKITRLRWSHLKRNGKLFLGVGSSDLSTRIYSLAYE
The description is as above.

No constants are given. Whether binding was seen depends on the method and setting. Binding seen in cells or lysates may run through a third protein. Some entries that bind do so weakly or less than the wild type. For some of these results: Sequences can lack the tags named with a protein.

B1: Kti12-HA6 (natural protein, S. cerevisiae, UniProt P34253 1-313, looked up)
chain: MPLVLFTGYPCSGKTTLAKHLVQLLQSKIDATPSLSKYSITYHSDESLGIKHSDYITSQDERKLRSEIISAVKRDLSKNKIVIVDSLNYIKGFRYQLHCEVKNLSTTFCVIQTLCPPETIFEWNKTSNPNPWEPELLNQLIQRYEEPNSSNRWDSPLFAILTPQDNITDYIDDICKVVFQTSKSAKNSGHNDPLSKGLQKPNSATVLKPASQSNFIQVLDIETSKIIKTIMNHIKSLTSIGGVSNGTRVIVSEGITDINDDGCFFVDLPIGNVVTLAQLQRLKRQFINFNKLRDIDQDRIGPLFADYLNKNLN
notes: Kti12, accessory protein of Elongator, S. cerevisiae; also called HA-tagged Kti12; source: S. cerevisiae KTI12-HA6 strains, in cell extract
With B1, the binding result in experiment [1] and in experiment [2] was “binds” in each case.

B2: Hrr25 protein kinase (casein kinase I), endogenous (enzyme, UniProt P29295 1-494)
chain: MDLRVGRKFRIGRKIGSGSFGDIYHGTNLISGEEVAIKLESIRSRHPQLDYESRVYRYLSGGVGIPFIRWFGREGEYNAMVIDLLGPSLEDLFNYCHRRFSFKTVIMLALQMFCRIQYIHGRSFIHRDIKPDNFLMGVGRRGSTVHVIDFGLSKKYRDFNTHRHIPYRENKSLTGTARYASVNTHLGIEQSRRDDLESLGYVLIYFCKGSLPWQGLKATTKKQKYDRIMEKKLNVSVETLCSGLPLEFQEYMAYCKNLKFDEKPDYLFLARLFKDLSIKLEYHNDHLFDWTMLRYTKAMVEKQRDLLIEKGDLNANSNAASASNSTDNKSETFNKIKLLAMKKFPTHFHYYKNEDKHNPSPEEIKQQTILNNNAASSLPEELLNALDKGMENLRQQQPQQQVQSSQPQPQPQQLQQQPNGQRPNYYPEPLLQQQQRDSQEQQQQVPMATTRATQYPPQINSNNFNTNQASVPPQMRSNPQQPPQDKPAGQSIWL
On to B2, for which the binding result in experiment [1] and in experiment [2] was “binds” throughout.

The record behind these values is PMC4287497, “Phosphorylation of Elp1 by Hrr25 Is Required for Elongator-Dependent tRNA Modification in Yeast” (PLoS Genetics, 2015).
